This is an account of results in article PMC7426320.

Sequences of proteins named here, by UniProt entry; tags and fusion partners are left off.
UniProt P40763: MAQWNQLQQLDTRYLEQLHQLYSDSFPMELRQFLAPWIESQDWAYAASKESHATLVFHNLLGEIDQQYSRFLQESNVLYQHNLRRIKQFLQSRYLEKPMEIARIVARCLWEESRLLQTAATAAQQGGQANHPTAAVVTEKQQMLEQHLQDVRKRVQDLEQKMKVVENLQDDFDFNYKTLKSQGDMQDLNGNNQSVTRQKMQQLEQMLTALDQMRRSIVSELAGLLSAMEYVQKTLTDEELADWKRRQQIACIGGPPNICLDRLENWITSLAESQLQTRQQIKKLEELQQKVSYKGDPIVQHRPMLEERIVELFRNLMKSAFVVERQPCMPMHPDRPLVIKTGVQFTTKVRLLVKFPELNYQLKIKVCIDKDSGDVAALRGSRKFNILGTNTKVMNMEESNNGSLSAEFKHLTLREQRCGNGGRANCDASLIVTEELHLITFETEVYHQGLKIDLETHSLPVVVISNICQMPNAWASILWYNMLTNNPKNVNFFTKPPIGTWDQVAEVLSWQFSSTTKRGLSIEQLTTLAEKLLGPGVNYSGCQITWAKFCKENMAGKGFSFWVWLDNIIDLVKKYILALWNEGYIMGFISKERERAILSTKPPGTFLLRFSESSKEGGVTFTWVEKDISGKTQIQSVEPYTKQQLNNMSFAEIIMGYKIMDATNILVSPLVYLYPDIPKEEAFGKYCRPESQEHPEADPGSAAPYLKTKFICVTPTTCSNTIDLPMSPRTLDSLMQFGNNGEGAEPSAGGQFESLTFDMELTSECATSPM
UniProt Q92793: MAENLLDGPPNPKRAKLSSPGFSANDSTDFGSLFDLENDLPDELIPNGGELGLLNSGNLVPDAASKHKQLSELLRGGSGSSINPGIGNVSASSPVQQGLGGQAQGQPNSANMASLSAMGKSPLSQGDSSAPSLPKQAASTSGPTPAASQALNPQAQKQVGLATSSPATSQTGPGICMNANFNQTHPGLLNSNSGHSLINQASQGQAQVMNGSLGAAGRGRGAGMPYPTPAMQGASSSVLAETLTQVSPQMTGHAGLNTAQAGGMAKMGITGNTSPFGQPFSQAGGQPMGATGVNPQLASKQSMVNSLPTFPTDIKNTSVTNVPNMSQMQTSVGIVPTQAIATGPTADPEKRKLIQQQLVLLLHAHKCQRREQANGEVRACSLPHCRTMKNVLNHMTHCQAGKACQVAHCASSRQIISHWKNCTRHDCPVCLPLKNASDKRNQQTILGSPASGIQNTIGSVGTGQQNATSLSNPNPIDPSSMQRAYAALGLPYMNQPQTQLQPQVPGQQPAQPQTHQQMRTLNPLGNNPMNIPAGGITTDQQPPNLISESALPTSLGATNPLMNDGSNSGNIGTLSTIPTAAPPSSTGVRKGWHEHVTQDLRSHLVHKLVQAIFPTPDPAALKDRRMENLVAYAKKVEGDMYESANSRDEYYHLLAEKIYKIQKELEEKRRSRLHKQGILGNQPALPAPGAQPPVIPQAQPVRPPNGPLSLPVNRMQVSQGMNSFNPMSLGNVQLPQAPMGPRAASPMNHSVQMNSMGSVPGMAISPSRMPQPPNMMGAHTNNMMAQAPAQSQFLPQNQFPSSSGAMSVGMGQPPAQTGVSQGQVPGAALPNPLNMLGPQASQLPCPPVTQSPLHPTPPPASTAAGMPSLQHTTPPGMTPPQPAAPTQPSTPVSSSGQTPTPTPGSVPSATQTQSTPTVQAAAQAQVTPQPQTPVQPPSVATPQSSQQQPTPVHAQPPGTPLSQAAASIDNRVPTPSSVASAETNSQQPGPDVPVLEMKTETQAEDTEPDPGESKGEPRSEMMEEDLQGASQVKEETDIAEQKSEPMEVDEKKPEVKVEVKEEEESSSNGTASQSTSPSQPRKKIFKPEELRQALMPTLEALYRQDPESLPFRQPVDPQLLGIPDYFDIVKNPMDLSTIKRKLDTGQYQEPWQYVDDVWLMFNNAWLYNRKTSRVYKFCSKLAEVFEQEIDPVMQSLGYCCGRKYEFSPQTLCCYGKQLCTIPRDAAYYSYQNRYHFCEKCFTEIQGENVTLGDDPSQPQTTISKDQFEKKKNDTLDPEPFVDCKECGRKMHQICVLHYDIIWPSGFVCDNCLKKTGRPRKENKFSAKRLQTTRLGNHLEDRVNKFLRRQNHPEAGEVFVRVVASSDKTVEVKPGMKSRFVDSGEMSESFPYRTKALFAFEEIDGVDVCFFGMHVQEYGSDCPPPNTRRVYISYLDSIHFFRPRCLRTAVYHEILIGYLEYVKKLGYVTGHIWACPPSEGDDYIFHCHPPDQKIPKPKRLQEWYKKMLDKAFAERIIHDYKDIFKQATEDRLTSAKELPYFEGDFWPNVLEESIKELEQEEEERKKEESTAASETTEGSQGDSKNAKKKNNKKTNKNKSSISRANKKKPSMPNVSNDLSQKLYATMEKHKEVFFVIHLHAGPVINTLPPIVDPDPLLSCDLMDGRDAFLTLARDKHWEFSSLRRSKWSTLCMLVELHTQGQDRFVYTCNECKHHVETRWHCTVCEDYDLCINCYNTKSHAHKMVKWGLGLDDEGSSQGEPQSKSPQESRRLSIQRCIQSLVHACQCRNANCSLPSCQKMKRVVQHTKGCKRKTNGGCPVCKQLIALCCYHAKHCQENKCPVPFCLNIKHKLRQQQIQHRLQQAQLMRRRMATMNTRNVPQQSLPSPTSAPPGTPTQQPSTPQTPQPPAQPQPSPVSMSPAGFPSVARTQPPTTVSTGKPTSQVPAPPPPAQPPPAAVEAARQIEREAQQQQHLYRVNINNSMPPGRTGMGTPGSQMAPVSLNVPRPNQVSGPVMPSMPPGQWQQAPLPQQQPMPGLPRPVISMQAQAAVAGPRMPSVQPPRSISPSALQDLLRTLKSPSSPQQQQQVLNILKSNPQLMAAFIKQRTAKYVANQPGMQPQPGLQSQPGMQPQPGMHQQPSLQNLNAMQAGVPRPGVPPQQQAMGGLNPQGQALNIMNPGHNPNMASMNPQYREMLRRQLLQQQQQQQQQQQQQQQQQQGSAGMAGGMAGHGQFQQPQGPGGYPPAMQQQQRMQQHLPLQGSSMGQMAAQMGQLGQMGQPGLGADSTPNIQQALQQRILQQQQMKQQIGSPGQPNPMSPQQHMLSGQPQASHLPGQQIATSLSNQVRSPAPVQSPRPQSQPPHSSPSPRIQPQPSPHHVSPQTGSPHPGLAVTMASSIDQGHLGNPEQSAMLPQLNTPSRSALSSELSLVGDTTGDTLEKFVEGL

The target of the assay is T1, serine/arginine-rich splicing factor 2 (SRSF2) (human (endogenous in Jurkate E6)) (UniProt Q01130).
T1 sequence: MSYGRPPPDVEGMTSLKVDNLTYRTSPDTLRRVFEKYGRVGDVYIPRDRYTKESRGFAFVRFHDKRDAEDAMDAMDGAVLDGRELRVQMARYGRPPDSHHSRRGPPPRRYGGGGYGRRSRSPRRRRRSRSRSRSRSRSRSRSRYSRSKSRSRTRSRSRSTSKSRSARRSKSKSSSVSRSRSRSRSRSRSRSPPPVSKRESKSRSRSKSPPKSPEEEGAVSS
Description: co-IP; Jurkate E6 cell lysates immuno-precipitated with anti-SRSF2 antibody or IgG (Protein G Dynabeads kit), western blot of the partners.

Results are given in words; binding and its absence hold for the method and conditions named. Binding seen in cells or lysates may run through a third protein. Some results given as binding are weak or reduced against the parent protein; the word gives no strength.

For “STAT3 Y705p (signal transducer and activator of transcription 3, phosphorylated at Y705) (from UniProt P40763 1-770)”, the binding result is “binds”.
In the case of CBP (from UniProt Q92793 1-2442), the binding entry is “binds”.
